Assay results taken from US12729405B2, “Method and kit for determining benefit of chemotherapy” (St. Jude Children's Research Hospital, Inc., priority 2019, dated 2026).
At least one compound was matched to its structure with a doubt left.

System: primary human ALL cells
Settings: subset of primary T-ALL samples (N=18)
Method: Ex vivo Leukemia Drug Sensitivity Assay. Drug response of primary human ALL cells was evaluated using a co-culture system and flow cytometry assays. hTERT-immortalized mesenchymal stem cells ([…] Wang, et al. (2019) Nat. Commun. 10:3718) were first seeded in a 96-well plate format at a density of 10,000 cells per well in 100 μL of complete medium (RPMI-1640, L-glutamine, 10% fetal bovine serum and 1 μM Hydrocortisone). After 24 hours, leukemia cells were added at 160,000 cells per well to the stromal cell layer in 80 μL AIM-V medium along with 20 μL of drug solution prepared in the same medium. […] After 96 hours incubation at 37° C. with 5% CO2, cells were harvested and stained with CD19 or CD7 to identify leukemia blasts (for B-ALL and T-ALL, respectively). The total number of live leukemia cells were evaluated by using flow cytometry after Annexin V and DAPI staining. Drug-induced death was estimated by comparing to leukemia cells treated with the vehicle alone. The drug concentration that killed 50% of the leukemia cells (LC50 value) was determined using a dose-response model and as a measurement of drug sensitivity. Quality control was performed to remove cases with low viability (less than 1000 viable blast cells in each well in the absence of drugs on day 4).

## Cc1ccc(C(=O)Nc2ccc(CN3CCN(C)CC3)c(C(F)(F)F)c2)cc1C#Cc1cnc2cccnn12 [ponatinib]
  response of dasatinib-sensitive primary T-ALL cases to other ABL inhibitors: responded effectively
